This is one part of the list. Further columns of the screen follow, without active or inactive calls. The list favours compounds with an active or inconclusive main result. Potencies come from curve fits of mixed quality, noted in brackets.
Assay: qHTS Assay to Find Inhibitors of Chronic Active B-Cell Receptor Signaling
Settings: ABC-DLBCL IkBa-CBG/CBR reporter, luminescence ratio (green luciferase fused to IkBa over red control in TMD8 lymphoma cells), 4 h
Procedure, shortened: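 TMD8 human ABC-DLBCL cells with doxycycline-inducible IκBα–green luciferase fusion and unfused red luciferase, in 0.5% FBS medium; compounds up to 46 uM, 4 h at 37C. Green/red luminescence ratio, filter-overlap corrected, fitted to concentration-response curves.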

[1] = measured here: CBR red luminescence, cell number

SMILES: CCOc1ccccc1N(C(=O)c1snc(C(N)=O)c1N)C(C(=O)NC1CCCC1)c1cccs1 (stereo unspecified)
- AC50 [1]: 11.2 µM [falling, partial curve, poor fit]

SMILES: O=c1c2c(nc3cc(-c4cccc(F)c4)[nH]n13)CCC2
- AC50 [1]: 3.16 µM [falling, full curve]

SMILES: S=C(Nc1ccc(Cl)cc1)NC1CCCCC1
- AC50 [1]: 28.2 µM [falling, single point]

SMILES: N#Cc1c(N2CCOCC2)nsc1-c1ccc(C(F)(F)F)cc1
- AC50 [1]: 5.62 µM [rising, partial curve, poor fit]

SMILES: CCc1ccc(N2C(=O)CN(Cc3sccc3C)C2=S)cc1
- AC50 [1]: 20 µM [rising, partial curve, poor fit]

SMILES: CN1CCN(C(c2ccc(C(F)(F)F)cc2)c2cc(Cl)c3cccnc3c2O)CC1 (stereo unspecified)
- AC50 [1]: 35.5 µM [falling, single point]

SMILES: COC(=O)c1c(-c2ccc(S(C)(=O)=O)cc2)sc2cc(OC)ccc12
- AC50 [1]: 9.2 µM [rising, partial curve]

SMILES: Cc1ccc(C(=O)Nc2cccnc2)cc1S(=O)(=O)N1CCCCCC1
- AC50 [1]: 12.6 µM [falling, partial curve]

SMILES: O=S(=O)(NCCNS(=O)(=O)c1ccccc1)c1ccccc1
- AC50 [1]: 2.06 µM [rising, single point]

SMILES: COc1ccc(C/C(C)=N/NC(=O)c2ccc(C)cc2C)cc1
- AC50 [1]: 15.8 µM [falling, partial curve, poor fit]

SMILES: Cc1ccc(NC(=O)C2=C(O)c3ccccc3N(C)S2(=O)=O)cc1
- AC50 [1]: 16.4 µM [falling, partial curve]

SMILES: COc1cc(/C=N/NC(=O)CNC(=O)/C=C/c2ccco2)cc(OC)c1OC
- AC50 [1]: 4.47 µM [rising, full curve, poor fit]

SMILES: Cc1cc(NC(=O)CSc2ncnc3ccccc23)no1
- AC50 [1]: 0.164 µM [falling, full curve, poor fit]

SMILES: C[C@]12CC[C@@H]3c4ccc(O)cc4CC[C@H]3[C@@H]1CCC2=O
- AC50 [1]: 11.6 µM [rising, partial curve]
- AC50 (measured here: IkBa-CBG green luminescence): 7.31 µM [falling, partial curve, poor fit]

SMILES: CCCCCC(=O)Nc1sc(C)c(C)c1C#N
- AC50 [1]: 5.17 µM [rising, partial curve, poor fit]

SMILES: COc1ccc(C2(C)NC(=O)N(CC(=O)NC3CCCC3)C2=O)cc1OC (stereo unspecified)
- AC50 [1]: 4.11 µM [falling, single point]

SMILES: COC(=O)c1ccc(Nc2nnc(-c3ccc(C)c(S(=O)(=O)NCC4CCCO4)c3)c3ccccc23)cc1 (stereo unspecified)
- AC50 [1]: 2.31 µM [falling, full curve]

SMILES: Cc1ccc(/C(N)=N/OC(=O)CCC2CCCCC2)cc1
- AC50 [1]: 20 µM [rising, single point]

SMILES: CCOC(=O)c1cc([N+](=O)[O-])sc1NC(=O)c1ccc(S(=O)(=O)N2CC3(C)CC2CC(C)(C)C3)cc1 (stereo unspecified)
- AC50 [1]: 23.1 µM [rising, single point]

SMILES: COC(=O)c1ccc(COc2ccccc2/C=C(\C#N)C(=O)Nc2ccc(C)cc2)cc1
- AC50 [1]: 29.1 µM [falling, single point]

SMILES: COC(=O)/C(=C(O)\C=C\c1ccccc1[N+](=O)[O-])c1nc2ccccc2[nH]1
- AC50 [1]: 8.91 µM [falling, partial curve]

SMILES: CCN1C(=O)NC(c2ccc(Cl)cc2)C2=C1CCCC2=O (stereo unspecified)
- AC50 [1]: 5.62 µM [rising, single point]

SMILES: Cc1cc(C)c(NC(=O)CN(C)CC(=O)Nc2cccc(S(=O)(=O)N(C)c3ccccc3)c2)c(C)c1
- AC50 [1]: 23.1 µM [falling, single point]

SMILES: CCOc1ccc(CN(C(=O)c2oc3cc(C)ccc3c2C)C2CCS(=O)(=O)C2)cc1 (stereo unspecified)
- AC50 [1]: 0.411 µM [rising, partial curve, poor fit]

SMILES: Cc1cc(C)cc(NC(=O)c2ccc(CSc3nnc(C)s3)cc2)c1
- AC50 [1]: 11.2 µM [falling, partial curve, poor fit]

SMILES: CCN(C(=O)COC(=O)CCC(=O)c1cccs1)C1CCCCC1
- AC50 [1]: 20.6 µM [rising, single point]

SMILES: CC(=O)Nc1ccc(S(=O)(=O)Nc2ccc3c(c2)CCC3)cc1
- AC50 [1]: 3.98 µM [falling, full curve]

SMILES: CCCCCOP(=O)(OCCCCC)C1(NS(=O)(=O)c2ccccc2)C=CC(=O)c2ccccc21 (stereo unspecified)
- AC50 [1]: 15.8 µM [falling, single point]

SMILES: Cc1ccc(C(=O)Nc2ncc([N+](=O)[O-])s2)cc1
- AC50 [1]: 0.112 µM [falling, full curve, poor fit]

SMILES: O=C(NCc1ccncc1)Nc1cc(Cl)ccc1Cl
- AC50 [1]: 14.1 µM [rising, single point]

SMILES: Cc1cc(C)n(-c2nc(NCCCO)c3c4c(sc3n2)CCCC4)n1
- AC50 [1]: 0.112 µM [rising, full curve, poor fit]

SMILES: O=C(NCc1ccc(F)cc1)Nc1cccc(Cl)c1
- AC50 [1]: 1 µM [rising, full curve, poor fit]

SMILES: CN(C)CCNC(=O)c1c(NC(=O)c2ccccc2)sc2c1CCCC2
- AC50 [1]: 8.91 µM [falling, partial curve, poor fit]

SMILES: COc1ccccc1Nc1nc(-c2sc(NC(=O)c3ccco3)nc2C)cs1
- AC50 [1]: 0.891 µM [falling, full curve]

SMILES: COC(=O)Cc1c(C)nc2nc(-c3cccnc3)[nH]n2c1=O
- AC50 [1]: 0.184 µM [falling, full curve, poor fit]

SMILES: C=CC[C@@H]1C=C[C@H](O/N=C/c2ccc(C(=O)N3[C@H](c4ccc(C)cc4)[C@@H](C)CC[C@H]3C(=O)OC)cc2)[C@@H](CO)O1
- AC50 [1]: 10.3 µM [falling, partial curve, poor fit]

SMILES: COC(=O)c1ccc(NC(=O)C23CCC(C)(C(=O)O2)C3(C)C)cc1 (stereo unspecified)
- AC50 [1]: 12.6 µM [rising, single point]

SMILES: CCCOc1cccc(C(=O)N/N=C/c2ccoc2)c1
- AC50 [1]: 11.2 µM [falling, partial curve]

SMILES: O=C(NCC(c1ccco1)N1CCc2ccccc2C1)C(=O)Nc1ccc(F)cc1F (stereo unspecified)
- AC50 [1]: 25.9 µM [falling, partial curve]

SMILES: C/C(=N/NC(=O)Cc1cccs1)c1ccco1
- AC50 [1]: 23.1 µM [rising, partial curve, poor fit]
